The supplement of paper PMC4604168 (melanoma cell lines)
The other results are listed elsewhere or left out. Repeats are few or missing, and single values can be far off.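 Imaging used 1,536-well plates; nuclei positive for cleaved PARP by antibody were divided by total DNA-stained nuclei to yield the apoptosis fraction. Doses for screening kept most cells viable, and cell lines differ markedly in resting and induced cleaved-PARP levels.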

system: WM1716; experiment: cleaved PARP positive nuclei fraction relative to DMSO control; melanoma cells; higher = more apoptosis; settings: library dose: low library concentration; 72 h

Structure (SMILES) | cleaved PARP positive nuclei fraction [%]
CC(=O)c1c(C)c2cnc(Nc3ccc(N4CCNCC4)cn3)nc2n(C2CCCC2)c1=O [palbociclib] + Clc1ccc(Nc2nnc(Cc3ccncc3)c3ccccc23)cc1 [vatalanib] (first compound 0.04 µM, partner dose 2 µM) | 184
Cn1nnc2c(C(N)=O)ncn2c1=O [temozolomide] + C[C@@H]1CCN(C(=O)CC#N)C[C@@H]1N(C)c1ncnc2[nH]ccc12 [CP690550] (first compound 2 µM, partner dose 1 µM) | 124
Cc1nc(Nc2ncc(C(=O)Nc3c(C)cccc3Cl)s2)cc(N2CCN(CCO)CC2)n1 [dasatanib] + Cn1nnc2c(C(N)=O)ncn2c1=O [temozolomide] (first compound 0.004 µM, partner dose 2 µM) | 115
OCc1c[nH]c2ccccc12 [Indole-3-carbinol] + COCC[n+]1c2c(n(Cc3cnccn3)c1C)C(=O)c1ccccc1C2=O [YM155] (first compound 0.8 µM, partner dose 0.0004 µM) | 114
Clc1ccc(Nc2nnc(Cc3ccncc3)c3ccccc23)cc1 [vatalanib] + C=CCn1c(=O)c2cnc(Nc3ccc(N4CCN(C)CC4)cc3)nc2n1-c1cccc(C(C)(C)O)n1 [MK1775] (first compound 2 µM, partner dose 0.02 µM) | 138
C#Cc1cccc(Nc2ncnc3cc(OCCOC)c(OCCOC)cc23)c1 [erlotinib] + COCC[n+]1c2c(n(Cc3cnccn3)c1C)C(=O)c1ccccc1C2=O [YM155] (first compound 0.8 µM, partner dose 0.0004 µM) | 121
